No constants are given. Whether binding was seen depends on the method and setting. Binding seen in cells or lysates may run through a third protein. A result given as binding can be weak or reduced; the word gives no strength.
Molecular target: tubulin βIII isoform, endogenous in Wt Ras MEFs (mouse (endogenous in Ras MEFs)) (UniProt Q9ERD7)
Experiment: co-IP; 500 µg whole cell extract of Wt Ras MEFs in RIPA-TRIS EDTA buffer, anti-β-III tubulin (D71G9) plus DynaBeads Protein G overnight, immunoblot for VDAC1; rabbit IgG as negative control; cells from normoxia or hypoxia

By UniProt entry, the sequences of proteins in these tests, tags left out. Where a name states a change or a piece, a line headed by the entry shows the natural chain unless it says otherwise.
UniProt Q9ERD7: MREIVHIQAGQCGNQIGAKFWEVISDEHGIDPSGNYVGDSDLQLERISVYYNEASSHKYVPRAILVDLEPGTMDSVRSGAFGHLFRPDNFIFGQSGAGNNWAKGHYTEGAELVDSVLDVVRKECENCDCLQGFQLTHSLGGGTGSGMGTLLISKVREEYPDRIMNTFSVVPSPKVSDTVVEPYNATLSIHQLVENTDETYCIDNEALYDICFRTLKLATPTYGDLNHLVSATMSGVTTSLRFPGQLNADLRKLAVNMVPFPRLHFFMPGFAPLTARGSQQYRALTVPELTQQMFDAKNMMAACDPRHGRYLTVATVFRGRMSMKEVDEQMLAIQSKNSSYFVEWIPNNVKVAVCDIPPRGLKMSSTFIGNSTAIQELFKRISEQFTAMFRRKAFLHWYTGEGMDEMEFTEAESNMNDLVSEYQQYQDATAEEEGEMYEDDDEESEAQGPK
UniProt Q60932: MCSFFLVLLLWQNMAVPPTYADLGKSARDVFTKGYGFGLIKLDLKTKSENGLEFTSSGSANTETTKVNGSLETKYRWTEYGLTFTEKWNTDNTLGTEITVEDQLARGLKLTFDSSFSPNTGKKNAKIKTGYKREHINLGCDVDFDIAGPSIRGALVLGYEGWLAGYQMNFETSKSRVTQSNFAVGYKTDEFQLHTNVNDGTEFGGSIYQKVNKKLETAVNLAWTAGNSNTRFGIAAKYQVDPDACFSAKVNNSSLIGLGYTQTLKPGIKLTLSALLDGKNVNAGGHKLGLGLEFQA

binding: binds
Substance: Voltage-dependent anion channel 1 (VDAC1), endogenous in Wt Ras MEFs (from UniProt Q60932)

Reference: publication PMC7700438
